# The other results are listed elsewhere or left out.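 The calls were made as follows: active = dose-dependent thermal stabilisation significant by F-test of dose-response against flat model at 10% FDR; inactive = not significant.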
# By UniProt entry, the sequences of proteins in these tests, tags left out. Where a name states a change or a piece, a line headed by the entry shows the natural chain unless it says otherwise.
# UniProt Q9P021, whole entry: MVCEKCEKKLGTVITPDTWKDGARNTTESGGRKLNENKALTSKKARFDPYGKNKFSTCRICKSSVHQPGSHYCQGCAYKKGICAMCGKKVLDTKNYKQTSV
# UniProt Q5TDH0: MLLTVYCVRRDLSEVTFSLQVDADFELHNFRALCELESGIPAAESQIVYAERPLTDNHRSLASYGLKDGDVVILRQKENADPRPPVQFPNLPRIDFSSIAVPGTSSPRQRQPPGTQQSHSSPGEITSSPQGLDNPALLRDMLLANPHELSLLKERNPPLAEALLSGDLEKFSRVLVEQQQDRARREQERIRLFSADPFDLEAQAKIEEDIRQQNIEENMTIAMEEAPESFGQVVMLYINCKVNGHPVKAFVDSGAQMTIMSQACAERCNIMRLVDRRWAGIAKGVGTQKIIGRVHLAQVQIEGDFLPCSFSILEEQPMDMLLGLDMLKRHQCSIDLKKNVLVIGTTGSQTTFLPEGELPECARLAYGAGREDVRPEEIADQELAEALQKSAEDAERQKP
# UniProt Q53ET0: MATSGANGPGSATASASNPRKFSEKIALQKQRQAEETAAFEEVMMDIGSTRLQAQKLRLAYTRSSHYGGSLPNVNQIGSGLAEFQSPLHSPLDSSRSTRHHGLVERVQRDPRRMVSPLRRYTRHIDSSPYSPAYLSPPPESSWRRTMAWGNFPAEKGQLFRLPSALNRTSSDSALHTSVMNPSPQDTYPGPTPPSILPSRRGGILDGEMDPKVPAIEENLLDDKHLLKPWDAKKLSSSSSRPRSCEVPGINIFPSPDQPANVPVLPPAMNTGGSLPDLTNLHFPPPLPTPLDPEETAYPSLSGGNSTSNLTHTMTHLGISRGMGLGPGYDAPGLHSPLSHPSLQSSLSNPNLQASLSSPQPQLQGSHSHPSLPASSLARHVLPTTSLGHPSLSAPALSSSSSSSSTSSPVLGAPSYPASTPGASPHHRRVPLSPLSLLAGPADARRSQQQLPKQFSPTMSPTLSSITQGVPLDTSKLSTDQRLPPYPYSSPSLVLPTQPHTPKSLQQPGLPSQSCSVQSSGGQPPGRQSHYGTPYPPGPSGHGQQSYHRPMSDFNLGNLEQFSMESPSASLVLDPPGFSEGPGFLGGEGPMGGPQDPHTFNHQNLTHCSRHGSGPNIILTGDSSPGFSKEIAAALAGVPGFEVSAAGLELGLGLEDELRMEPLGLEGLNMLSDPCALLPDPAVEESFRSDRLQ
# UniProt Q9BUQ8: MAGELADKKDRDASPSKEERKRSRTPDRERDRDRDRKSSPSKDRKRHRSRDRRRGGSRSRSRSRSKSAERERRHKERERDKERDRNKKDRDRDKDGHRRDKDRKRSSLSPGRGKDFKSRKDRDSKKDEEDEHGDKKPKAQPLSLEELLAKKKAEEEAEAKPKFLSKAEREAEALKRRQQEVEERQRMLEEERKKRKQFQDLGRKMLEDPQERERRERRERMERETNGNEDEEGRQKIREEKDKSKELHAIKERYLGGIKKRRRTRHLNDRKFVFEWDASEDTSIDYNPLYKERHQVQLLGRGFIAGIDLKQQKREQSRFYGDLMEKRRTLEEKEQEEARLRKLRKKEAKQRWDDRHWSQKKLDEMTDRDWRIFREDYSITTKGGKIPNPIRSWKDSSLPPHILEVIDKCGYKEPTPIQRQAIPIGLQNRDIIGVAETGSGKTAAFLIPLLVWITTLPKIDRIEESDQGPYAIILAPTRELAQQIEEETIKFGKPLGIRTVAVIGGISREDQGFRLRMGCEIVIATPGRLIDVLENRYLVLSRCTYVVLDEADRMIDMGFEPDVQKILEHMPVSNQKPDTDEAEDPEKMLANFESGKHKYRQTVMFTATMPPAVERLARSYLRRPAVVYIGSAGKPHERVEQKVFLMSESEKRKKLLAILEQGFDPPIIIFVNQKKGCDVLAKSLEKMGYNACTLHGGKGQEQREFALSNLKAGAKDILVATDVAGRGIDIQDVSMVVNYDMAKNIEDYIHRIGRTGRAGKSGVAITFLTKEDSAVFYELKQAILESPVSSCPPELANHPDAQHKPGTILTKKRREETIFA
# UniProt P33316: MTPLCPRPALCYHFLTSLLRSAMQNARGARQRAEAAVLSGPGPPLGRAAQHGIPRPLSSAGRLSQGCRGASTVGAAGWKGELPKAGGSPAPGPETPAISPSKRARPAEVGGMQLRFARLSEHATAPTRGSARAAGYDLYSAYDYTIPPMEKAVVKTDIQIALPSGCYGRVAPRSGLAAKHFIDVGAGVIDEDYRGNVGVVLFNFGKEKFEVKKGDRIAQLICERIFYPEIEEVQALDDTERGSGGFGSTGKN
# UniProt Q9P013: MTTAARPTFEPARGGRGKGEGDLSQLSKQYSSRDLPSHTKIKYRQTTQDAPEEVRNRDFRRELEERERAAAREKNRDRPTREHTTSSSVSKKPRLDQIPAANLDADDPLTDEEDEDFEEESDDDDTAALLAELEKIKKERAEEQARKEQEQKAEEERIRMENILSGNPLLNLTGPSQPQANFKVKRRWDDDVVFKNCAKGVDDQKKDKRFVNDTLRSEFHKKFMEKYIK
# UniProt Q8IV53: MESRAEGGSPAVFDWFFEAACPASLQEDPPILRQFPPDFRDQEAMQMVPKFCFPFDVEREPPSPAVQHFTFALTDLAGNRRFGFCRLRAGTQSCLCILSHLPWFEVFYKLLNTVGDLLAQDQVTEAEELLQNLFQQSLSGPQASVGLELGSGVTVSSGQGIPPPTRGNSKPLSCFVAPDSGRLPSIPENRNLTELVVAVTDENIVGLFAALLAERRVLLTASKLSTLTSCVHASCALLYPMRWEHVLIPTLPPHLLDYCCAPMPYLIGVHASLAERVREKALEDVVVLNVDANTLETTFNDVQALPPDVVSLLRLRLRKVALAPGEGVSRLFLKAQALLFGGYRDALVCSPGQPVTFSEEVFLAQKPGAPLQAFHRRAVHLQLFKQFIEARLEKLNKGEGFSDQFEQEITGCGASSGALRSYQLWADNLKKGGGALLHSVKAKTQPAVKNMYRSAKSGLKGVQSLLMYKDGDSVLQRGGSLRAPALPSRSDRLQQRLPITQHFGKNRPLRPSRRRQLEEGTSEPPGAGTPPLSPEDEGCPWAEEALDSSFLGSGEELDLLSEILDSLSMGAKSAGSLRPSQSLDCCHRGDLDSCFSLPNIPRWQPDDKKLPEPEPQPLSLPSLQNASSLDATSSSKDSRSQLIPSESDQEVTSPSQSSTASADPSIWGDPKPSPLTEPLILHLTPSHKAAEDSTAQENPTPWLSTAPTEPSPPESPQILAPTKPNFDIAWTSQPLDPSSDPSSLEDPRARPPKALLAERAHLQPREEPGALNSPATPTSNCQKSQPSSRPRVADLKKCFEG
# UniProt P51452: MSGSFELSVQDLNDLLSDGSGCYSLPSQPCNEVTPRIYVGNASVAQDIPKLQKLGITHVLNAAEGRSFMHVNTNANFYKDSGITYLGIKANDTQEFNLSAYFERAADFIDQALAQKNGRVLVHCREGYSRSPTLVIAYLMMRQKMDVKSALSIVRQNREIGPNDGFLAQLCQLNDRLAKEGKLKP
# UniProt Q01658: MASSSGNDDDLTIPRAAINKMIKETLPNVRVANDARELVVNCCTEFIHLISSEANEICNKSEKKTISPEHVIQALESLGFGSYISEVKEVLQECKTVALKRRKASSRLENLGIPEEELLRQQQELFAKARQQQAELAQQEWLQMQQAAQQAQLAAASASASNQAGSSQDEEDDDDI
# UniProt Q58WW2: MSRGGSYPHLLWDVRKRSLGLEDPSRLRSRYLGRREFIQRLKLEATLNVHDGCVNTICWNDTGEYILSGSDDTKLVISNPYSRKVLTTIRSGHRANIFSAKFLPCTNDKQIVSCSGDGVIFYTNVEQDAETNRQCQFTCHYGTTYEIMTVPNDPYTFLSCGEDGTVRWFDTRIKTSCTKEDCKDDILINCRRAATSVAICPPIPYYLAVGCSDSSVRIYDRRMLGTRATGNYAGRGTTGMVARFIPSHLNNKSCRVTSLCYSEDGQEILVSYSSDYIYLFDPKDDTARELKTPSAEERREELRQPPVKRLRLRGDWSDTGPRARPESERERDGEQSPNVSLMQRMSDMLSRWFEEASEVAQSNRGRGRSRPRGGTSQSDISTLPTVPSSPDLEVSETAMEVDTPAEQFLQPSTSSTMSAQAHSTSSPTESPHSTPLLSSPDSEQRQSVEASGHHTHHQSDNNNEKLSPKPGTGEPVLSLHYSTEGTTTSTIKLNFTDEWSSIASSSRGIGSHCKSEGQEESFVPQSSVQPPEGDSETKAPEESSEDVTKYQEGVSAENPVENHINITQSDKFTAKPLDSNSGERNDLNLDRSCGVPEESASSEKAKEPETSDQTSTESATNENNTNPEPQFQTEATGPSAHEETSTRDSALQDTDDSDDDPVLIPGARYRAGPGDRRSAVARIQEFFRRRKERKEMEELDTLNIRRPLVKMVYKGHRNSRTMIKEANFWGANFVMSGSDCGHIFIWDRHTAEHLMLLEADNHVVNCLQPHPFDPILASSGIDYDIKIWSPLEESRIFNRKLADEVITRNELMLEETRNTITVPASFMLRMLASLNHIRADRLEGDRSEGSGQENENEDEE
# UniProt Q14919: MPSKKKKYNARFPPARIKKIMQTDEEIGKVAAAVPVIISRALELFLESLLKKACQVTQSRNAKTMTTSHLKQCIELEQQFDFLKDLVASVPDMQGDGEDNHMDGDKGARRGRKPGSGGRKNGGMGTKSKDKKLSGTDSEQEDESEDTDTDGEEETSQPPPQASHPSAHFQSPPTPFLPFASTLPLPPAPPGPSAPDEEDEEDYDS
# UniProt Q5VYK3, whole entry: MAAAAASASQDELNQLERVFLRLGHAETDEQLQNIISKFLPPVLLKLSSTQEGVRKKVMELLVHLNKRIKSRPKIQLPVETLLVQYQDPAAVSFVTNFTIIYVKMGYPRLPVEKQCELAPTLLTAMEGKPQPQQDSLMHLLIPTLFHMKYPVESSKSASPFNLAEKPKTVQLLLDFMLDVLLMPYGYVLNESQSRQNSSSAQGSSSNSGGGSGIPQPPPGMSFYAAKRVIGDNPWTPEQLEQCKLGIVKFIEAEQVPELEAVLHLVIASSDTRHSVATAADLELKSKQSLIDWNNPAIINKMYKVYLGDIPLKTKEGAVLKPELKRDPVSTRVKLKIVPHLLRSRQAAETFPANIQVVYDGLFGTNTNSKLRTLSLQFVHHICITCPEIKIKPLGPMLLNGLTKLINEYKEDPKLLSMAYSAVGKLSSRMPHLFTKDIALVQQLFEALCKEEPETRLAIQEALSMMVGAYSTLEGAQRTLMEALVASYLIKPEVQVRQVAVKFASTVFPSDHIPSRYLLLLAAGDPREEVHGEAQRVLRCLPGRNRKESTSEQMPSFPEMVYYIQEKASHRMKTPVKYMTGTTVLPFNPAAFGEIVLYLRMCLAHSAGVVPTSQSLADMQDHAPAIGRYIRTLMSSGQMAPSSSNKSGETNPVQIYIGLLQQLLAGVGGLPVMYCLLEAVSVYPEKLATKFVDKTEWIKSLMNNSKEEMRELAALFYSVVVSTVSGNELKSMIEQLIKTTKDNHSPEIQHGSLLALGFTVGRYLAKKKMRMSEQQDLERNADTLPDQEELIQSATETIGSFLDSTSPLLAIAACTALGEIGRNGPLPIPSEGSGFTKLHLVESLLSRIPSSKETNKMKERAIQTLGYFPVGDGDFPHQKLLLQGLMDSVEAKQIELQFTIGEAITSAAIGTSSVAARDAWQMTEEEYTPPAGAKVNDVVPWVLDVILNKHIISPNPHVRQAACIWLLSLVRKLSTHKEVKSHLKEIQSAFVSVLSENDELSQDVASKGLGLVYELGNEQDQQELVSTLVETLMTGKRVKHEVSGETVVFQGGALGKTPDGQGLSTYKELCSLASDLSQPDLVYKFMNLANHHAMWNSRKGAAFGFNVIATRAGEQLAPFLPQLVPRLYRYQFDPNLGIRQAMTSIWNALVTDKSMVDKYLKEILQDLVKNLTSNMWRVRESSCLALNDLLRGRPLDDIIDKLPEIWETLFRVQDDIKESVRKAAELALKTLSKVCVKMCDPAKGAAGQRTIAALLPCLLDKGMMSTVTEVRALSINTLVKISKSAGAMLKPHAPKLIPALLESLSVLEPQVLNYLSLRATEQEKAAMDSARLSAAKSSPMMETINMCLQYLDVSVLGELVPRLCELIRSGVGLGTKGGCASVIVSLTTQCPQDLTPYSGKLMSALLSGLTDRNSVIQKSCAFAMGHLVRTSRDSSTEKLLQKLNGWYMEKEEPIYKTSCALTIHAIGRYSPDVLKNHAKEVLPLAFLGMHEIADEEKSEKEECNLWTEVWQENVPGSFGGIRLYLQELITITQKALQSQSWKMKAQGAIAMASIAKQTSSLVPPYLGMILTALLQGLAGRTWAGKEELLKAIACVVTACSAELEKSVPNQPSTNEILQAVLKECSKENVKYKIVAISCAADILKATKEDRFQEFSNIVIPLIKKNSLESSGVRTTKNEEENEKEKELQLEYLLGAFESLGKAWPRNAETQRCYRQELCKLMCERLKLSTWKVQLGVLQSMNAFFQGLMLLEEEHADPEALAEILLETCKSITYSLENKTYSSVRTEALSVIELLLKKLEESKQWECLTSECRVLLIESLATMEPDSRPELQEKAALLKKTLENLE
# Compound: Nc1nc2c(ncn2[C@@H]2O[C@H](COP(=O)(O)OP(=O)(O)OP(=O)(O)O)[C@@H](O)[C@H]2O)c(=O)[nH]1
# Experiment: dose-dependent thermal stabilisation call (2D-TPP, DLPTP, 10% FDR) (binary (1 = stabilised)); higher = stabilised by the compound
# Conditions: system: Jurkat gel-filtered lysate; concentration range 1-500 µM
# Experimental: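 2D thermal proteome profiling in gel-filtered Jurkat E6.1 lysate (2 mg/ml) treated with NaGTP (0, 1, 10, 100, 500 uM) for 10 min at room temperature, then heated 3 min at one of 12 temperatures (42-63.9 C). Soluble protein was quantified by TMT10 MS. The value is the DLPTP call of the paper: dose-dependent thermal stabilisation over all temperatures at 10% FDR (F-test of a dose-response against a flat model); one experiment, one call per tested protein.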
row,Target,dose-dependent thermal stabilisation call
1,CRIPT (UniProt Q9P021),inactive: 0
2,DDI2 (UniProt Q5TDH0),inactive: 0
3,CTNNB1 (UniProt P35222),inactive: 0
4,CSNK2B (UniProt P67870),active: 1
5,CRTC2 (UniProt Q53ET0),inactive: 0
6,DIP2B (UniProt Q9P265),inactive: 0
7,CSE1L (UniProt P55060),inactive: 0
8,EEA1 (UniProt Q15075),inactive: 0
9,EEF2KMT (UniProt Q96G04),inactive: 0
10,CUTA (UniProt O60888),inactive: 0
11,DDX23 (UniProt Q9BUQ8),active: 1
12,DUT (UniProt P33316),inactive: 0
13,DHX8 (UniProt Q14562),active: 1
14,CWC15 (UniProt Q9P013),inactive: 0
15,DLST (UniProt P36957),inactive: 0
16,DOCK7 (UniProt Q96N67),inactive: 0
17,CTCF (UniProt P49711),inactive: 0
18,DBI (UniProt P07108),inactive: 0
19,CYCS (UniProt P99999),inactive: 0
20,DENND1C (UniProt Q8IV53),inactive: 0

row,Target,dose-dependent thermal stabilisation call
1,CWC27 (UniProt Q6UX04),inactive: 0
2,DNAAF2 (UniProt Q9NVR5),inactive: 0
3,CRKL (UniProt P46109),inactive: 0
4,CRYL1 (UniProt Q9Y2S2),active: 1
5,CROT (UniProt Q9UKG9),inactive: 0
6,DOHH (UniProt Q9BU89),inactive: 0
7,DUSP3 (UniProt P51452),inactive: 0
8,CSDE1 (UniProt O75534),inactive: 0
9,CXXC1 (UniProt Q9P0U4),inactive: 0
10,DMAP1 (UniProt Q9NPF5),inactive: 0
11,CTSC (UniProt P53634),inactive: 0
12,DCAF11 (UniProt Q8TEB1),inactive: 0
13,DNPH1 (UniProt O43598),active: 1
14,DR1 (UniProt Q01658),inactive: 0
15,DCAF6 (UniProt Q58WW2),inactive: 0
16,DTD2 (UniProt Q96FN9),inactive: 0
17,DRAP1 (UniProt Q14919),inactive: 0
18,DLG3 (UniProt Q92796),inactive: 0
19,DDX59 (UniProt Q5T1V6),inactive: 0
20,ECM29 (UniProt Q5VYK3),active: 1

# Reformatted: results already given
row	Target	dose-dependent thermal stabilisation call
8	CSDE1 (UniProt O75534)	inactive: 0
9	CXXC1 (UniProt Q9P0U4)	inactive: 0
